# Laboratory results: PubChem BioAssay AID651640 (Broad Institute, 2012)
# “And” between values parts separate entries of the source, which are not always exact repeats. Equal values may be shown once. The campaign covered roughly 350,000 compounds. About 6,000 (1.7%) were called active. The inconclusive results got no clear call from the source; some entries with a clear call stand among them for comparison. No stated cut-off is given here; in the data, active means CPE inhibition above about 20% (passing the limit was not always enough); inconclusive means no clear call, values can overlap the other calls; tested in BHK-21 cells. More than one record can exist for a structure, and the calls need not agree.
# Experiment: protection of cells from dengue 2 killing – plate reader, single concentration, primary screen (AID 651640);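 further: 0% = median of neutral control wells and 100% = median of positive control wells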
# Details: DENV2-infected cells, cytopathic effect rescue, at 9.99 µM, hits give high values
row,Structure (SMILES),CPE inhibition
1,NC[C@H](O)c1ccc(O)c(O)c1,inactive: 1.03%
2,C[C@H]1CN([C@@H](C)CO)C(=O)Cc2cc(NC(=O)Nc3ccccc3)ccc2O[C@H]1CN(C)Cc1ccc2c(c1)OCO2,inconclusive: 30.8%
3,C[C@@H]1CN([C@@H](C)CO)C(=O)Cc2cc(NC(=O)Nc3cccc4ccccc34)ccc2O[C@H]1CN(C)C(=O)Nc1ccc2c(c1)OCO2,inactive: -7.8%
4,CCC12CC3CC(C1)CC(C(=O)NNC(N)=O)(C3)C2,inactive: -1.08%
5,Cn1nc(-c2ccc(Cl)cc2)cc1NC(=O)Nc1ccccc1,inactive: -2.93%
6,O=C(NCCC1=CCCCC1)C1CCN(S(=O)(=O)c2ccccc2C(F)(F)F)CC1,inconclusive: 26.9%
7,Cc1noc(C)c1NC(=O)Nc1ccc2c(c1)C(=O)N([C@@H](C)CO)C[C@@H](C)[C@H](CN(C)S(=O)(=O)c1ccc(Cl)cc1)OCCCC[C@@H](C)O2,inactive: 2.6%
8,O=C(N[C@H]1CC[C@@H](CCNS(=O)(=O)Cc2ccccc2)O[C@H]1CO)c1ccccc1F,inactive: 5.12%
9,C/C=C/c1ccc([C@@H]2[C@H](CO)N(C(=O)Cc3ccncc3)[C@H]2CNC(C)=O)cc1,active: 30.5%
10,CCOC(=O)c1c(C)n(C)c2ccc(OCC(O)CN3CCC(C)CC3)cc12 (centres undefined),inactive: -7.98%
11,O=C(NCCc1ccncc1)[C@H]1[C@H](CO)[C@H]2Cn3c(ccc(-c4cccnc4)c3=O)[C@H]2N1C(=O)C1CC1,inconclusive: 34.7%
12,COc1ccc(-c2cnc3c(c2)C(=O)N([C@H](C)CO)C[C@H](C)[C@@H](CN(C)Cc2ccccc2)O3)cc1,inconclusive: 37.2%
13,Cc1cc(C(=O)Nc2cccc3c2O[C@H](CN(C)C(=O)Nc2cccc4ccccc24)[C@H](C)CN([C@H](C)CO)C3=O)n(C)n1,inactive: 6.83%
14,N#CCC(=O)Nc1ccc(C(=O)OCC(=O)Nc2ccccc2Sc2ccccc2)cc1,inconclusive: 48.8%
15,Cc1cc(S(=O)(=O)NCC(c2ccc(F)cc2)N2CCN(C)CC2)ccc1F (centres undefined),inconclusive: 24.7%
16,Cc1ccc(S(=O)(=O)Nc2ccc3c(c2)C(=O)N([C@@H](C)CO)C[C@H](C)[C@H](CN(C)S(=O)(=O)c2c(C)noc2C)O3)cc1,inactive: 5.42%
17,O=C(COc1ccc(/C=N/NC(=O)CSCc2ccc([N+](=O)[O-])cc2)cc1)NCc1ccco1,inconclusive: 26.6%
18,C[C@@H]1CN([C@@H](C)CO)C(=O)Cc2cc(NS(=O)(=O)c3cccs3)ccc2O[C@@H]1CN(C)Cc1ccc(-c2ccccc2)cc1,active: 44.3%
19,COc1cccc(C(=O)N2C[C@H]3[C@@H](c4ccccc42)[C@H](CO)N3C(=O)c2ccc(F)cc2)c1,active: 26.7%
20,COc1ccc(S(=O)(=O)N(C)C[C@@H]2OCCCC[C@@H](C)Oc3ccc(NC(=O)Nc4ccc(F)cc4)cc3C(=O)N([C@@H](C)CO)C[C@H]2C)cc1,inactive: -8.04%
21,O=C(C[C@@H]1C[C@@H]2c3cc(NS(=O)(=O)c4ccc(F)cc4)ccc3O[C@@H]2[C@H](CO)O1)NCCc1ccccc1,active: 57.7%
22,CCOc1ccc(Nc2nc(N3CCOCC3)nc(N3CCOCC3)n2)cc1,inactive: 15.2%
23,COc1ccc(C(=O)N2CCN(c3ccc(NC(=O)c4cccnc4)cc3)CC2)cc1,inconclusive: 64.2%

row,Structure (SMILES),CPE inhibition
1,CCC(=O)Nc1nnc(/C=C/c2ccc(OC)cc2)s1,active: 57.7%
2,Cc1oc(-c2ccccc2)cc1C(=O)NC1CCN(Cc2ccccc2)CC1,inconclusive: 33.5%
3,COc1cccc(NC(=O)N(C)C[C@@H]2Oc3ncc(C#Cc4ccc(F)cc4)cc3C(=O)N([C@@H](C)CO)C[C@@H]2C)c1,inconclusive: 44.4%
4,C[C@H](CO)N1C[C@H](C)[C@H](CN(C)Cc2ccncc2)Oc2ncc(Br)cc2C1=O,active: 84.9%
5,CO[C@H]1CN(C)C(=O)c2ccc(NC(C)=O)cc2OC[C@@H](C)N(Cc2ccc(F)cc2)C[C@H]1C,inconclusive: 43.8%
6,CN(c1ccccc1)S(=O)(=O)c1cc(C(=O)Nc2ccccc2N2CCOCC2)ccc1Cl,inactive: -1.86%
7,C[C@@H]1CN([C@@H](C)CO)C(=O)Cc2cc(NC(=O)Nc3cccc4ccccc34)ccc2O[C@H]1CN(C)C(=O)Nc1cccc2ccccc12,active: 44.6%
8,CCCCOc1cc(C(=O)OCCN(CC)CC)ccc1N,inconclusive: 22.4% and inconclusive: 31.6%
9,CCOC(=O)N1CCN(Cc2nc3cc(NC(=O)CC)ccc3n2CC)CC1,active: 38.6%
10,CC(C)(C)[S@@](=O)N1Cc2cc(C(=O)N3CCCCC3)nc(-c3cccc(Br)c3)c2[C@H]1CCO,inactive: -9.04%
11,CCOC(=O)c1[nH]c2cc3c(cc2c1NC(=O)CN1CCN(CCO)CC1)OCO3,inconclusive: 21.8%
12,COc1ccc(NC(=O)N(C)C[C@H]2Oc3ccc(NS(=O)(=O)c4cccs4)cc3C(=O)N([C@@H](C)CO)C[C@H]2C)cc1,inactive: -6.98%
13,COc1ccc(C)c(NC(=O)C2CC(=O)NC3=C2C(=O)CCC3)c1 (centres undefined),inconclusive: 66.2%
14,CC(C)CNC(=O)/C=C/C=C/c1ccc2c(c1)OCO2,inconclusive: 69.6%
15,COc1ccccc1OCCN(C#N)c1nc(N(C)C)nc(N(C)C)n1,inactive: 1.15%
16,Clc1ccc(Cl)c(OCCCCN2CCCCC2)c1,inconclusive: 22.3%
17,Cc1ccc(S(=O)(=O)Nc2ccc3c(c2)C(=O)N([C@@H](C)CO)C[C@H](C)[C@H](CN(C)C(=O)NC(C)C)O3)cc1,active: 31.9%
18,CCCc1nn2c(=O)cc(CSCC(=O)Nc3ccccc3)nc2s1,inconclusive: 32%
19,CC(=O)N1C[C@H]2CON(C)[C@H]2C[C@H]1c1cccc(N2CCOCC2)c1,inactive: 12.6%
20,COc1cc(NC(=O)NCC2CCN(Cc3ccc(C)cc3)CC2)cc(OC)c1OC,inconclusive: 22.7%
21,C[C@H](CO)N1C[C@H](C)[C@H](CN(C)C)Oc2cc(C#CC3CCCC3)ccc2S1(=O)=O,active: 59.4%
22,O=c1[nH]c(=S)[nH]c2c1C(c1ccc(Cl)cc1)OC(CCc1ccccc1)C2 (centres undefined),active: 101%
23,N#Cc1cccc(-c2ccc(C3[C@H]4CNC[C@@H]3N4C(=O)Nc3ccc(F)cc3)cc2)c1 (some centres undefined),active: 23%

# For convenience, some entries already given:
row,Structure (SMILES),CPE inhibition
3,COc1cccc(NC(=O)N(C)C[C@@H]2Oc3ncc(C#Cc4ccc(F)cc4)cc3C(=O)N([C@@H](C)CO)C[C@@H]2C)c1,inconclusive: 44.4%
4,C[C@H](CO)N1C[C@H](C)[C@H](CN(C)Cc2ccncc2)Oc2ncc(Br)cc2C1=O,active: 84.9%
5,CO[C@H]1CN(C)C(=O)c2ccc(NC(C)=O)cc2OC[C@@H](C)N(Cc2ccc(F)cc2)C[C@H]1C,inconclusive: 43.8%
6,CN(c1ccccc1)S(=O)(=O)c1cc(C(=O)Nc2ccccc2N2CCOCC2)ccc1Cl,inactive: -1.86%

# Further results:

row,Structure (SMILES),CPE inhibition
1,CCCNC(=O)N1[C@H](CO)[C@H](c2ccccc2-c2ccccc2)[C@@H]1C#N,active: 109%
2,COc1ccc(Br)c(-c2nc(CS(=O)(=O)c3ccc(F)cc3)no2)c1,inactive: -3.72%
3,COc1cc(/C=C(/C#N)c2nc3ccccc3[nH]2)ccc1OCc1ccc(C(=O)O)o1,inactive: 3.56%
4,COc1ccccc1NC(=O)N1CC(=O)N2[C@H](CO)[C@H](c3ccc(C#Cc4ccccc4)cc3)[C@H]2C1,inactive: 8.69%
5,O=C(N/N=C/c1ccccn1)c1ccc(S(=O)(=O)N2CCCCCC2)cc1,inactive: 0.844%
6,Nc1ccc(Nc2ccc([N+](=O)[O-])cc2[N+](=O)[O-])cc1,inactive: -2.82%
7,CCC(=O)N1[C@@H]2CN(C(=O)Nc3ccc(Cl)cc3)c3ccccc3[C@@H]2[C@@H]1CO,inconclusive: 25.8%
8,CC(C)C[C@H]1CN([C@@H](Cc2ccccc2)CN2CCC[C@@H]2CN2C(=O)C(=O)NC[C@@H]2Cc2ccc(O)cc2)C(=O)C(=O)N1CC1CCCCCC1,inconclusive: 54.7%
9,CC(=O)c1cccc(N(C(=O)CNC(=O)c2ccco2)C(C(=O)NC2CCCC2)c2ccc(C)o2)c1 (centres undefined),inactive: 5.82%
10,Cc1nc(NC(=S)NC(=O)c2cncc(Br)c2)ccc1Br,inactive: -7.14%
11,Cc1cc(C(=O)N2CCN(Cc3ccccc3)CC2)ccc1[N+](=O)[O-],inactive: 1.62%
12,Nc1nc(=O)n(C2CC(O)C(CO)O2)cc1Cl (centres undefined),inconclusive: 42.7%
13,C[C@@H]1CN([C@H](C)CO)C(=O)CCCn2nncc2CO[C@H]1CN(C)Cc1ccc2c(c1)OCCO2,inconclusive: 22.1%
14,C[C@@H]1CCCCO[C@@H](CN(C)Cc2ccncc2)[C@@H](C)CN([C@@H](C)CO)C(=O)c2cc(NC(=O)Nc3cccc4ccccc34)ccc2O1,inconclusive: 21.3%
15,Cc1oc2cc3oc(=O)c(CCC(=O)NCCCn4ccnc4)c(C)c3cc2c1C,active: 20.9%
16,C[C@H]1CN([C@@H](C)CO)C(=O)c2cc(-c3cncnc3)cnc2O[C@H]1CN(C)C(=O)c1ccccc1F,inconclusive: 35.7%
17,Cc1cc(C)cc(NC(=O)Cn2nnc(C(=O)NCc3cccs3)c2N)c1,active: 27%
18,C[C@@H]1CN([C@@H](C)CO)C(=O)c2cc(NC(=O)Nc3ccc4c(c3)OCO4)ccc2O[C@@H](C)CCCCO[C@H]1CN(C)C(=O)C1CCCCC1,active: 77%
19,COc1ccc(S(=O)(=O)N(C)C[C@H]2OCCCC[C@H](C)Oc3ccc(NC(=O)C4CCCCC4)cc3C(=O)N([C@H](C)CO)C[C@H]2C)cc1,inactive: -1.73%
20,Cc1ccccc1S(=O)(=O)N1CCCCN2[C@@H](CO)[C@H](c3ccc(-c4ccccc4)cc3)[C@@H]2C1,inactive: 7.55%
21,C[C@H]1CN([C@@H](C)CO)S(=O)(=O)c2ccc(-c3cccc(C(=O)N(C)C)c3)cc2O[C@@H]1CN(C)C(=O)Nc1ccc(F)cc1,inactive: -1.57%
22,COc1ccc(CN(C)C[C@H]2OCCCC[C@@H](C)Oc3ccc(NS(=O)(=O)c4ccc(F)cc4)cc3C(=O)N([C@@H](C)CO)C[C@@H]2C)cc1,inconclusive: 20.5%
23,CO[C@H](CN(C)C(=O)c1ccccc1F)[C@H](C)CN([C@H](C)CO)S(=O)(=O)c1ccc(Cl)cc1,inactive: 3.01%
